Laboratory results reported in paper PMC5633200.

The chains behind the UniProt entries cited, without tags or fusion partners. Where a name states a change or a piece, a line headed by the entry shows the natural chain unless it says otherwise.
UniProt A0A290U614: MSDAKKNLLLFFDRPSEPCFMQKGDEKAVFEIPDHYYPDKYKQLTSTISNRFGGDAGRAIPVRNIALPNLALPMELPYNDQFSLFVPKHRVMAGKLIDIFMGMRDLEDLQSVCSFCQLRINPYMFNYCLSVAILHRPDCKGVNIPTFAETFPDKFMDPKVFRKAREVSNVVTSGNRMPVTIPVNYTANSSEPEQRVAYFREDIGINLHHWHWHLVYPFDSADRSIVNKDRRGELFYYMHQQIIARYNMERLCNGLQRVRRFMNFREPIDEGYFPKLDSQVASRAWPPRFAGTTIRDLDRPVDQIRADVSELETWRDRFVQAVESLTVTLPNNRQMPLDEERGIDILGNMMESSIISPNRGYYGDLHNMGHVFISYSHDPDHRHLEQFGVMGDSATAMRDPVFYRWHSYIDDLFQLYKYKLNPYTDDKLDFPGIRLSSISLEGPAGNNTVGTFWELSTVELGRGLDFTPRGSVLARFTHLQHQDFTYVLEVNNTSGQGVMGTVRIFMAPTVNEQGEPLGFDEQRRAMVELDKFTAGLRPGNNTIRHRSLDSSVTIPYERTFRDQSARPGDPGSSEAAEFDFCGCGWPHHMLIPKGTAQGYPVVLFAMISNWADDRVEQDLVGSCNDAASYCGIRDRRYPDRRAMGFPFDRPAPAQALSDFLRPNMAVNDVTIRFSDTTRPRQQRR

Experiments:
[1] = target: Helicoverpa armigera prophenoloxidase 2 (H. armigera (endogenous in larval hemolymph)) (UniProt Q2VIY6); assay: co-purification from hemolymph, SDS-PAGE and immunoblot; PPO purified from hemolymph of naive 5th instar larvae (ammonium sulfate, hydroxyapatite, Con A, Phenyl Sepharose, Superdex 200); SDS-PAGE and immunoblot with PPO1 and PPO2 antibodies
[2] = target: serpin-5, yeast two-hybrid fusion (H. armigera); assay: two-hybrid; yeast AH109 co-transformed with serpins in pGBK7 and cSPs in pGADT7; growth on SD-Leu-Trp-His medium with X-gal
[3] = target: serpin-9, yeast two-hybrid fusion (H. armigera); assay: as above

| Substance | binding [3] | other results |
| --- | --- | --- |
| Helicoverpa armigera prophenoloxidase 1 (from UniProt A0A290U614) (enzyme) |  | binding [1]: binds |
| cSP4, yeast two-hybrid fusion (from UniProt A0A290U6G2) (enzyme) |  | binding [2]: binds |
| cSP6, yeast two-hybrid fusion (from UniProt A0A290U627) (enzyme) | binds |  |
| cSP29, yeast two-hybrid fusion (from UniProt A0A290U617) (enzyme) | binds |  |

Results are given in words; binding and its absence hold for the method and conditions named. Binding calls can cover weak binding; strength is not graded here. For some of these results: In cells and extracts the contact can be indirect.
